# Experimental data: PubChem BioAssay AID540276 (National Center for Advancing Translational Sciences (NCATS), 2011)
# The campaign covered roughly 300,000 compounds. About 5,400 (1.8%) were called active. The inconclusive results got no clear call from the source; some entries with a clear call stand among them for comparison. Calls come from the whole dose curve; tested in HEK293 cells. A potency beside an inconclusive call is a rough fit, not a confirmed value.
# Experiment: qHTS for inhibitors of binding or entry into cells for Marburg Virus
# Settings: Marburg virus pseudotyped entry inhibition, cell reporter; series mostly up to 37.8 µM
# Potency is the fitted concentration of half-maximal effect.
row,Structure (SMILES),Potency
1,Cc1cccc(C(=O)OC(C)CN2C(C)CCCC2C)c1 (centres undefined),"inconclusive: 12.6 µM [inhibitor, partial curve, poor fit]"
2,Cc1ccc2nc(N3CCN(Cc4nnnn4Cc4ccccc4)CC3)c(C#N)cc2c1,inactive
3,c1ccc2c(NC3CCCC3)nnc(NC3CCCC3)c2c1,"inconclusive: 31.6 µM [inhibitor, single point]"
4,O=C1c2[nH]nc(-c3ccccc3O)c2C(c2ccc(Cl)cc2)N1Cc1ccco1 (centres undefined),inactive
5,C=CCNC(=S)N(CC)c1cccc2ccccc12,"inconclusive: 22.4 µM [inhibitor, single point]"
6,CCOC(=O)c1[nH]c2ccc(F)cc2c1NC(=O)CN1CCN(C/C=C/c2ccccc2)CC1,"inconclusive: 25.1 µM [inhibitor, single point]"
7,O=c1nc2sc3ccccc3n2c(=O)n1-c1ccc(Cl)c(Cl)c1,inactive
8,COc1ccccc1-c1nc2ccccc2nc1-c1ccccc1OC,inactive
9,COc1ccccc1-c1ccc(SCC(=O)Nc2cc(C)on2)nn1,inactive
10,COc1cc(C(=O)Nc2cccc(-c3nc4ncccc4o3)c2C)cc(OC)c1OC,inactive
11,O=C(Nc1cccc(Cl)c1N1CCCC1)c1ccco1,inactive
12,C/C(=N\NC(=O)c1cc(-c2ccc(C)s2)[nH]n1)c1ccncc1,"inconclusive: 6.31 µM [inhibitor, full curve, poor fit]"
13,CC(NC(=O)c1ccc(N)cc1)c1ccccc1 (centres undefined),inactive
14,CN1C(=O)CCC1c1cccnc1 (centres undefined),"inconclusive: 2 µM [inhibitor, partial curve, poor fit]"
15,c1nc(N2CCNCC2)c2sc3nc(N4CCOCC4)c4c(c3c2n1)CCC4,inactive
16,O=C(CNC(=O)c1ccc(S(=O)(=O)N2CCCC2)cc1)N/N=C/c1c(Cl)cccc1Cl,"inconclusive: 0.562 µM [inhibitor, full curve, poor fit]"
17,Cc1ccc(C)c(N(CC(=O)NN=C2CCCCCCC2)S(C)(=O)=O)c1,"inconclusive: 6.31 µM [activator, single point]"
18,O=C(NC(Nc1ccccn1)C(Cl)(Cl)Cl)c1ccccc1 (centres undefined),"inconclusive: 0.631 µM [activator, full curve, poor fit]"
19,COc1ccc2[nH]c3c(NCCCOC(C)C)ncnc3c2c1,"inconclusive: 11.2 µM [inhibitor, partial curve, poor fit]"
20,Cc1ccc(C(=O)N2CCN(c3ccc(NC(=O)c4ccc5c(c4)OCCO5)cc3)CC2)cc1,"inconclusive: 17.8 µM [inhibitor, single point]"
21,CC(NC(=O)c1cccc(OC2CCN(C(=O)C3CC3)CC2)c1)c1ccc(F)cc1 (centres undefined),"inconclusive: 31.6 µM [inhibitor, single point]"
22,Cc1cc(C)c2cc(C(=O)Nc3ccc4c(c3)OCO4)[nH]c2c1,inactive
23,Cc1cccc(Nc2nc(N)c([N+](=O)[O-])c(N3CCC(C)CC3)n2)c1,"inconclusive: 5.01 µM [inhibitor, partial curve, poor fit]"

# Structural class, those above containing a furan ring, fused or not.
row,Structure (SMILES),Potency
4,O=C1c2[nH]nc(-c3ccccc3O)c2C(c2ccc(Cl)cc2)N1Cc1ccco1 (centres undefined),inactive
11,O=C(Nc1cccc(Cl)c1N1CCCC1)c1ccco1,inactive

# The list continues:

row,Structure (SMILES),Potency
1,O=C(C1CCN(c2nnc(-n3cccc3)s2)CC1)N1CCN(c2cccc(C(F)(F)F)c2)CC1,"inconclusive: 20 µM [inhibitor, partial curve, poor fit]"
2,Cn1ccc(C(=O)Nc2ccc(Br)cc2Br)n1,"inconclusive: 0.461 µM [activator, partial curve, poor fit]"
3,O=C(C/C=N/OCc1c(Cl)cccc1Cl)c1ccc(Cl)cc1,"inconclusive: 0.92 µM [inhibitor, full curve, poor fit]"
4,CC(SC(C)C(=O)NN=Cc1cccc(F)c1)C(=O)NN=Cc1cccc(F)c1 (centres undefined),inactive
5,CCOC(=O)c1cc(-c2ccccc2)sc1NC(=O)CSc1nnc(N)s1,"inconclusive: 0.794 µM [inhibitor, full curve, poor fit]"
6,Cc1cc(/C=N/NC(=O)Cn2c3ccccc3c(=O)c3ccccc32)c(C)n1-c1ccc(Cl)cc1,"inconclusive: 7.94 µM [inhibitor, partial curve, poor fit]"
7,CCCN(CCC)CCc1c[nH]c2ccc(C(N)=O)cc12,"inconclusive: 2.91 µM [inhibitor, single point]"
8,CC(C)CCC1=NN(C(=O)c2ccco2)C(O)(C(F)(F)F)C1 (centres undefined),"inconclusive: 10 µM [inhibitor, partial curve]"
9,CCOc1ccc(OCc2cccc(C(=O)N(CC)CC)c2)cc1,"inconclusive: 5.01 µM [inhibitor, partial curve, poor fit]"
10,COc1ccc2c(C)cc(N3CCCCCC3)nc2c1,"inconclusive: 14.1 µM [inhibitor, partial curve, poor fit]"
11,C=CCOC(=O)C1=C(C)NC(SCC(=O)N(CC)CC)=C(C#N)[C@@H]1c1ccccc1,"inconclusive: 10 µM [inhibitor, partial curve, poor fit]"
12,CCCCOc1cccc(/C=C(\C#N)C(=O)NC2CC2)c1,"inconclusive: 35.5 µM [inhibitor, single point]"
13,CC(C)Oc1cccc(C(=O)NC(=S)Nc2cccc(C(F)(F)F)c2)c1,"inconclusive: 35.5 µM [inhibitor, single point]"
14,CC(=O)Nc1ccc(Br)c2ccccc12,"inconclusive: 0.891 µM [activator, full curve, poor fit]"
15,NC(=O)c1cccnc1Nc1cccc([N+](=O)[O-])c1,"inconclusive: 1.26 µM [activator, single point]"
16,Cc1ccc(-c2cc(C(F)(F)F)n3nc(C(=O)Nc4ccc(Cl)cc4Cl)cc3n2)cc1,"inconclusive: 6.31 µM [inhibitor, single point]"
17,Cc1ccccc1C(=O)Nn1cnnc1,inactive
18,COc1cc(NC(=O)Cc2ccc(S(=O)(=O)N3CCOCC3)s2)c(OC)cc1Cl,"inconclusive: 7.94 µM [inhibitor, partial curve, poor fit]"
19,COC(=O)N[C@@H](c1cccs1)C(C(C)=O)C(=O)OC (some centres undefined),"inconclusive: 0.841 µM [activator, partial curve, poor fit]"
20,CC1(C)CC(=O)c2cnc(N3CCc4ccccc4C3)nc2C1,inactive
21,O=S(=O)(NC1CC1)c1ccc(S(=O)(=O)N2CCCC(c3nc(-c4cccnc4)no3)C2)cc1 (centres undefined),"inconclusive: 35.5 µM [inhibitor, single point]"
22,COc1cccc([C@@H]2Oc3ccc(Br)cc3C[C@H]2OC(=O)NS(=O)(=O)c2ccc(C)cc2)c1,"inconclusive: 0.0106 µM [activator, full curve, poor fit]"
23,C/C(=C\C(=O)Nc1nccs1)c1ccccc1,inactive

# Rewritten with tabs: three of the compounds above.
row	Structure (SMILES)	Potency
17	Cc1ccccc1C(=O)Nn1cnnc1	inactive
18	COc1cc(NC(=O)Cc2ccc(S(=O)(=O)N3CCOCC3)s2)c(OC)cc1Cl	inconclusive: 7.94 µM [inhibitor, partial curve, poor fit]
19	COC(=O)N[C@@H](c1cccs1)C(C(C)=O)C(=O)OC (some centres undefined)	inconclusive: 0.841 µM [activator, partial curve, poor fit]

# (more compounds)

row,Structure (SMILES),Potency
1,O=C(O)CCCN(Cc1cccc(Br)c1)S(=O)(=O)c1ccc(Br)cc1,inactive
2,COc1ccccc1NC(=O)c1oc2ccccc2c1NC(=O)c1cc(OC)c(OC)c(OC)c1,inactive
3,O=C(CSc1ccc(F)cc1)Nc1ccc(N2CCOCC2)c(Cl)c1,inactive
4,CCn1cc(CNCc2cn(C)nc2-c2ccc(C3CCCCC3)cc2)cn1,"inconclusive: 22.4 µM [inhibitor, single point]"
5,COc1ccccc1/C=C/c1nc(C#N)c(N2CCCCC2)o1,inactive
6,Cc1ccc(SCC(=O)Nc2ccc3c(c2)OCCO3)cc1,"inconclusive: 25.1 µM [activator, partial curve, poor fit]"
7,CC(C)N(CCc1ccncc1)C(=S)Nc1cccc(Cl)c1,"inconclusive: 35.5 µM [inhibitor, single point]"
8,COc1ccc(-c2ccc(=O)n(CC(=O)NCC3COCCO3)n2)cc1 (centres undefined),inactive
9,O=C(c1ccc(CSc2ccccc2)cc1)N1CCN(c2ccccc2)CC1,"inconclusive: 25.1 µM [inhibitor, single point]"
10,Oc1ccc(COCc2ccccc2)c2cccnc12,"inconclusive: 35.5 µM [inhibitor, single point]"
11,Cc1ccc(N=C2NC(=O)/C(=C/c3cn(C)c4ccccc34)S2)cc1C,"inconclusive: 12.6 µM [inhibitor, single point]"
12,c1cncc(Nc2nc(-c3cccnc3)cs2)c1,inactive
13,Cc1ccc(C2=Nc3ccc(Br)cc3C(c3ccncc3)=NN2)cc1,"inconclusive: 11.2 µM [inhibitor, partial curve, poor fit]"
14,COc1ccc(C(C(=O)NC2CCCCC2)N(Cc2cccs2)C(=O)Cc2c[nH]c3ccccc23)cc1 (centres undefined),"inconclusive: 20.6 µM [inhibitor, single point]"
15,Cc1ccc(NNC(=O)C(=O)N2CCCCC2)cc1,inactive
16,CCN(CC(=O)Nc1c(F)cccc1F)C(=O)c1ccc(OCC(=O)N2CCOCC2)c(OC)c1,inactive
17,CCN(CC(=O)Nc1c(F)cccc1F)C(=O)CCN1C(=O)c2cccc([N+](=O)[O-])c2C1=O,"inconclusive: 17.8 µM [activator, single point]"
18,CN1CCN(C(=O)c2cccn(Cc3c(Cl)cccc3Cl)c2=O)CC1,"inconclusive: 0.316 µM [inhibitor, partial curve, poor fit]"
19,COc1ccccc1Cn1c(CO)nc2ccccc21,"inconclusive: 11.2 µM [inhibitor, partial curve, poor fit]"
20,COCC(=O)Oc1c(Sc2ccc(C)cc2)c(C)nn1C(C)(C)C,inactive
21,CN(c1ccccc1)c1nc2ccsc2c(=O)s1,"inconclusive: 25.9 µM [activator, single point]"
22,O=C(OCC(=O)C12CC3CC(CC(C3)C1)C2)c1cnccn1,inactive
23,COC(=O)C1=CN(Cc2ccc(OC)cc2)C=C(C(=O)OC)C1c1cccs1,"inconclusive: 35.5 µM [inhibitor, single point]"
